For some assays here: At least one result comes from cells or an extract, where the contact may be indirect. For some assays here: The exact form of at least one protein or probe is not confirmed.
How the values were obtained:
[1] = target: ERBB2 (HER2) in A431 cells (UniProt P04626); assay: activity in cells; conditions: 6 (n) = NapdU [n positions 2,4,5,10,11,12,16,20,24,35 = modified dU], protein on the cell surface, single-stranded DNA, variant of clone #11 (1194-2, 9-ER-N-B12_C06)
ERBB2 (HER2) = ERBB2 (HER2) (Homo sapiens?) (UniProt P04626); assay: ELONA; conditions: purified recombinant protein, protein details: R&D Systems 1129-ER-050, single-stranded DNA
[2] = target: ERBB2 (HER2) on MCF7 cells (UniProt P04626); assay: flow cytometry; conditions: 6 (n) = NapdU [n positions 2,4,5,10,11,12,16,20,24,35 = modified dU]; MCF7, 100 pmol, 4 C; cytochemistry also positive (FIG. 7B); protein on the cell surface; label: Cy3; single-stranded DNA; variant of AP001-24 (1194-34, #11 short)

With “ATGTTAGAGTTTGCCTGAGTGCCTCGCAAGGGCGTAACAA [AP001-24 (1194-34, #11 short)]” the “functional effect of the aptamer” value ([1]; 20 nM aptamer blocks EGF- or HRG-induced ERBB2 Tyr877 phosphorylation) was “active”, the IC50 ([1]; inhibition of EGF-induced ERBB2 phosphorylation in A431) was 1 nM and the binding result (ERBB2 (HER2); 6 (n) = NapdU [n positions 2,4,5,10,11,12,16,20,24,35 = modified dU], sandwich with AP001-25, detects ERBB2 down to 50 pg/ml in 5% serum, variant of clone #11 (1194-2, 9-ER-N-B12_C06)) was “binds”.
“TCCTGGCATGTTCGATGGAGGCCTTTGATTACAGCCCAGA [AP001-25 (1194-35, #12 short)]”: binds (ERBB2 (HER2); 6 (n) = NapdU [n positions 1,4,9,11,12,16,24,25,26,29,30 = modified dU], sandwich with AP001-24, AP001-25 immobilized on plate, 5% serum, variant of clone #12 (1194-1, 9-ER-N-C02_D06)).
“ATGTTAGAGTTTGCCTGAGTGCCTCGCAAGGGCGTAACAA [Cy3-AP001-24]”: binds [2].

Reference: US20150005368
